No constants are given. Whether binding was seen depends on the method and setting. Binding calls can cover weak binding; strength is not graded here. Tags and fused reporters may be left off the sequences shown.
Target: T1, eEF3 (eukaryotic elongation factor 3), C-terminally TAP-tagged (S. cerevisiae) (UniProt P16521)
T1 sequence: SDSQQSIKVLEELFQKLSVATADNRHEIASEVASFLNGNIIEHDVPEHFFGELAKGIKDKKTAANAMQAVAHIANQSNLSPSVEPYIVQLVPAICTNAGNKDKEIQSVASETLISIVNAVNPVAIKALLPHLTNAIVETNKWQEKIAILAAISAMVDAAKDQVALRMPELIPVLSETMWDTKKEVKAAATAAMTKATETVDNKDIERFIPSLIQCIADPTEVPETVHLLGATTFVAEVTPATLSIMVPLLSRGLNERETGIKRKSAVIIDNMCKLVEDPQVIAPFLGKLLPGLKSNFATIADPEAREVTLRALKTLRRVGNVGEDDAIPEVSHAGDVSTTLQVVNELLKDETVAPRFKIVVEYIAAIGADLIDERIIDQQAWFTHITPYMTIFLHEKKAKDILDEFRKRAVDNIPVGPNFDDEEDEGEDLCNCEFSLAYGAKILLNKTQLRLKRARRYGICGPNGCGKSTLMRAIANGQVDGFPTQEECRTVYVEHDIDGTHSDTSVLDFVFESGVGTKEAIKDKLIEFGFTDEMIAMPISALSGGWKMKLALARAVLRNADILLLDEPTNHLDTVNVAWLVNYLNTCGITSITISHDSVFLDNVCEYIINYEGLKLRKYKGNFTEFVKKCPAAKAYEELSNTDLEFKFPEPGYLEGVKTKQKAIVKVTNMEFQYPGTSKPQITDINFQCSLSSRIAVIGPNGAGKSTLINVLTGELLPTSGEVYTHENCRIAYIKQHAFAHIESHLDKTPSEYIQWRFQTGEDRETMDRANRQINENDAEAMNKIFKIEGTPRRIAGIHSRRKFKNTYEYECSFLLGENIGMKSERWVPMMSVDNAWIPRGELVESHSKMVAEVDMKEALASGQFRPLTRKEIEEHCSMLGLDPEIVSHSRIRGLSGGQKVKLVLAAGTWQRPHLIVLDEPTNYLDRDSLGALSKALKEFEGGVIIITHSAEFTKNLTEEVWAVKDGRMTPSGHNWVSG
Experiment: cryo-EM structure

Protein sequences, listed by entry. Tags and fused reporters are not part of them. Lines headed by an entry give the natural chain unless they say otherwise; changes in a name come on top.
UniProt P07280: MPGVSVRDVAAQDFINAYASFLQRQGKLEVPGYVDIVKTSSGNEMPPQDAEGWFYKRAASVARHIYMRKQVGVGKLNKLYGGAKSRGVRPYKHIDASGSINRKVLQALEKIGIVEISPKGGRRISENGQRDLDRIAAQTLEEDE
UniProt P0C0W9: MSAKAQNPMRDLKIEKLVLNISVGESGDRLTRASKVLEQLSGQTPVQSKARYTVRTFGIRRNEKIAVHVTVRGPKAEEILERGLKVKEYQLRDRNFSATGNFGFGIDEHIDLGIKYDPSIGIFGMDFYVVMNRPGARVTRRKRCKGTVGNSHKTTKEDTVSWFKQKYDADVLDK

| Substance | binding |
| --- | --- |
| ribosomal protein eS19 (from UniProt P07280) | binds |
| ribosomal protein uL5 (from UniProt P0C0W9) | binds |

— publication doi:10.1101/2020.07.01.182105
